Measurements as given in the supplement of paper PMC10663445.
Where a name gives a salt, the structure may show the parent alone. The list shows a part of the results. Most values come without repeats; read them as rough.

These molecules were tested on hsa-miR-132-3p (assay: miR-132-3p level in NGN2-iNs after compound treatment (TMM-normalised, ComBat batch-corrected) (batch-corrected normalised expression (arbitrary units)); higher = higher miR-132-3p expression). Details: 10 µM; 24 h; human iPSC-derived NGN2 neurons (BR43).
COc1c(C)c2c(c(O)c1C/C=C(\C)CCC(=O)OCCN1CCOCC1)C(=O)OC2 [Mycophenolate Mofetil] was tested, and the “miR-132-3p level in NGN2-iNs” value was 0.394. CN1C(C(=O)Nc2ccccn2)=C(O)c2ccccc2S1(=O)=O [Piroxicam] was tested, and the “miR-132-3p level in NGN2-iNs” value was -0.408. With NCCS [Cysteamine HCl] the “miR-132-3p level in NGN2-iNs” value was 0.649. In the case of O=C(O)c1ccc(-n2nc(-c3ccccc3O)nc2-c2ccccc2O)cc1 [Deferasirox], the “miR-132-3p level in NGN2-iNs” value is reported as 0.343. In the case of C[C@H]1COC2(CCN(c3nc(=O)c4cc(C(F)(F)F)cc([N+](=O)[O-])c4s3)CC2)O1 (racemic) [BTZ043 Racemate], the “miR-132-3p level in NGN2-iNs” value is reported as 0.506. In the case of Cc1cnc(-c2cnc(NCCNc3ccc(C#N)cn3)nc2-c2ccc(Cl)cc2Cl)[nH]1, the “miR-132-3p level in NGN2-iNs” value is reported as -0.112. With CCCNC(C)C(=O)Nc1c(C)csc1C(=O)OC (stereo not drawn) [Articaine HCl] the “miR-132-3p level in NGN2-iNs” value was -0.36. CC(=O)C1=C(O)C=C2Oc3c(C(C)=O)c(O)c(C)c(O)c3C2(C)C1=O (single isomer, unassigned; (+)) [(+)-Usniacin] was tested, and the “miR-132-3p level in NGN2-iNs” value was 0.435. In the case of O=C(O)c1cc2cccc([N+](=O)[O-])c2[nH]1, the “miR-132-3p level in NGN2-iNs” value is reported as 1.77. For COc1ccc(CCc2nc3cc(-c4c(C)noc4C)ccc3n2C[C@H](C)N2CCOCC2)cc1Cl, the “miR-132-3p level in NGN2-iNs” value was 0.133. With CC(C[N+](C)(C)C)OC(N)=O (stereo not drawn) [Bethanechol chloride] the “miR-132-3p level in NGN2-iNs” value was 0.873. For COc1ccc(C[C@H](NC(=O)[C@H](C)NC(=O)CN2CCOCC2)C(=O)N[C@@H](Cc2ccccc2)C(=O)[C@@]2(C)CO2)cc1, the “miR-132-3p level in NGN2-iNs” value was 1.12. In the case of Cc1ccc2nc(NCCN)c3ncc(C)n3c2c1, the “miR-132-3p level in NGN2-iNs” value is reported as -0.598. For CC(=O)c1cc([N+](=O)[O-])c(Sc2ccc(F)cc2F)s1, the “miR-132-3p level in NGN2-iNs” value was 0.731. In the case of COc1ccc([C@@H]2Sc3ccccc3N(CCN(C)C)C(=O)[C@@H]2OC(C)=O)cc1 [Diltiazem HCl], the “miR-132-3p level in NGN2-iNs” value is reported as 0.185. In the case of COc1cc(NS(=O)(=O)c2ccc(N)cc2)nc(OC)n1 [Sulphadimethoxine], the “miR-132-3p level in NGN2-iNs” value is reported as -0.32. In the case of O=C1N=C(O)NC1(c1ccccc1)c1ccccc1 [Phenytoin Sodium], the “miR-132-3p level in NGN2-iNs” value is reported as 0.124. With Cc1ccc(Cl)cc1N(CC(=O)Nc1c(F)cccc1F)S(C)(=O)=O the “miR-132-3p level in NGN2-iNs” value was -0.172. Oc1nc(-c2ccc(C(F)(F)F)cc2)nc2c1CSCC2 was tested, and the “miR-132-3p level in NGN2-iNs” value was 0.471. With NC1=NCC2c3ccccc3Cc3ccccc3N12 (stereo not drawn) [Epinastine HCl] the “miR-132-3p level in NGN2-iNs” value was 1.44. With CC(C)n1cnc2c(NCCc3ccc(O)cc3)nc(-c3csc4ccccc34)nc21 [StemRegenin 1 (SR1)] the “miR-132-3p level in NGN2-iNs” value was 0.811. In the case of O=C(NNc1ccccc1)c1ccncc1, the “miR-132-3p level in NGN2-iNs” value is reported as -0.455. For Cc1cc(C#N)cc(C)c1Oc1nc(Nc2ccc(C#N)cc2)nc(N)c1Br [Etravirine (TMC125)], the “miR-132-3p level in NGN2-iNs” value was -0.39. O=c1[nH]c(=O)n([C@H]2C[C@H](O)[C@@H](CO)O2)cc1C(F)(F)F [Trifluridine] was tested, and the “miR-132-3p level in NGN2-iNs” value was 0.235. For Cc1cc(F)c(Nc2ncnc3cc(OCc4ccccc4)ccc23)cc1O, the “miR-132-3p level in NGN2-iNs” value was 0.817. In the case of NS(=O)(=O)c1ccc(NC(=O)Nc2ccc(F)cc2)cc1, the “miR-132-3p level in NGN2-iNs” value is reported as 2.62. For S=c1[nH]cnc2nc[nH]c12 [Mercaptopurine (6-MP)], the “miR-132-3p level in NGN2-iNs” value was -0.877. In the case of O=C(NCCCNc1nc(Nc2cccc(NC(=O)N3CCCC3)c2)ncc1I)c1cccs1, the “miR-132-3p level in NGN2-iNs” value is reported as -0.9. In the case of Cc1cccc(-c2[nH]ncc2-c2ccc3ncccc3n2)n1, the “miR-132-3p level in NGN2-iNs” value is reported as -0.188. With Nc1nc(=O)[nH]cc1F [Flucytosine] the “miR-132-3p level in NGN2-iNs” value was -0.0656. In the case of Oc1cc(O)cc(/C=C/c2ccc(O)c(O)c2)c1 [Piceatannol], the “miR-132-3p level in NGN2-iNs” value is reported as -0.585. Brc1ccc(C2CN3CCSC3=N2)cc1 (single isomer, unassigned; (-)) [(-)-p-Bromotetramisole Oxalate] was tested, and the “miR-132-3p level in NGN2-iNs” value was -0.415. For CC[C@@]1(O)C(=O)OCc2c1cc1n(c2=O)Cc2cc3c(CN(C)C)c(O)ccc3nc2-1 [Topotecan HCl], the “miR-132-3p level in NGN2-iNs” value was 0.141. In the case of CN(C)C(=O)c1cc2cnc(Nc3ccc(N4CCNCC4)cn3)nc2n1C1CCCC1 [Ribociclib (LEE011)], the “miR-132-3p level in NGN2-iNs” value is reported as 0.167. With CC(=O)O[C@]1(C(C)=O)CC[C@H]2[C@@H]3C=C(C)C4=CC(=O)CC[C@]4(C)[C@H]3CC[C@@]21C [Megestrol Acetate] the “miR-132-3p level in NGN2-iNs” value was 0.0684. C=C1[C@H](CO)[C@@H](O)C[C@@H]1n1cnc2c(=O)[nH]c(N)nc21 [Entecavir Hydrate] was tested, and the “miR-132-3p level in NGN2-iNs” value was 2.4. In the case of CCCC(=O)Nc1cccc(NC(=O)c2ccccc2Br)c1 [ML161 (Parmodulin 2)], the “miR-132-3p level in NGN2-iNs” value is reported as -0.0616. For CO[C@H]1C[C@@H]2CC[C@@H](C)[C@@](O)(O2)C(=O)C(=O)N2CCCC[C@H]2C(=O)O[C@H]([C@H](C)C[C@@H]2CC[C@H](n3cnnn3)[C@H](OC)C2)CC(=O)[C@H](C)/C=C(\C)[C@@H](O)[C@@H](OC)C(=O)[C@H](C)C[C@H](C)/C=C/C=C/C=C/1C [Zotarolimus(ABT-578)], the “miR-132-3p level in NGN2-iNs” value was -1.02.
